The record followed here is paper PMC7110113, “Termination of non‐coding transcription in yeast relies on both an RNA Pol II CTD interaction domain and a CTD‐mimicking region in Sen1” (The EMBO Journal, 2020).

Protein sequences, listed by entry. Tags and fused reporters are not part of them.
UniProt P04050: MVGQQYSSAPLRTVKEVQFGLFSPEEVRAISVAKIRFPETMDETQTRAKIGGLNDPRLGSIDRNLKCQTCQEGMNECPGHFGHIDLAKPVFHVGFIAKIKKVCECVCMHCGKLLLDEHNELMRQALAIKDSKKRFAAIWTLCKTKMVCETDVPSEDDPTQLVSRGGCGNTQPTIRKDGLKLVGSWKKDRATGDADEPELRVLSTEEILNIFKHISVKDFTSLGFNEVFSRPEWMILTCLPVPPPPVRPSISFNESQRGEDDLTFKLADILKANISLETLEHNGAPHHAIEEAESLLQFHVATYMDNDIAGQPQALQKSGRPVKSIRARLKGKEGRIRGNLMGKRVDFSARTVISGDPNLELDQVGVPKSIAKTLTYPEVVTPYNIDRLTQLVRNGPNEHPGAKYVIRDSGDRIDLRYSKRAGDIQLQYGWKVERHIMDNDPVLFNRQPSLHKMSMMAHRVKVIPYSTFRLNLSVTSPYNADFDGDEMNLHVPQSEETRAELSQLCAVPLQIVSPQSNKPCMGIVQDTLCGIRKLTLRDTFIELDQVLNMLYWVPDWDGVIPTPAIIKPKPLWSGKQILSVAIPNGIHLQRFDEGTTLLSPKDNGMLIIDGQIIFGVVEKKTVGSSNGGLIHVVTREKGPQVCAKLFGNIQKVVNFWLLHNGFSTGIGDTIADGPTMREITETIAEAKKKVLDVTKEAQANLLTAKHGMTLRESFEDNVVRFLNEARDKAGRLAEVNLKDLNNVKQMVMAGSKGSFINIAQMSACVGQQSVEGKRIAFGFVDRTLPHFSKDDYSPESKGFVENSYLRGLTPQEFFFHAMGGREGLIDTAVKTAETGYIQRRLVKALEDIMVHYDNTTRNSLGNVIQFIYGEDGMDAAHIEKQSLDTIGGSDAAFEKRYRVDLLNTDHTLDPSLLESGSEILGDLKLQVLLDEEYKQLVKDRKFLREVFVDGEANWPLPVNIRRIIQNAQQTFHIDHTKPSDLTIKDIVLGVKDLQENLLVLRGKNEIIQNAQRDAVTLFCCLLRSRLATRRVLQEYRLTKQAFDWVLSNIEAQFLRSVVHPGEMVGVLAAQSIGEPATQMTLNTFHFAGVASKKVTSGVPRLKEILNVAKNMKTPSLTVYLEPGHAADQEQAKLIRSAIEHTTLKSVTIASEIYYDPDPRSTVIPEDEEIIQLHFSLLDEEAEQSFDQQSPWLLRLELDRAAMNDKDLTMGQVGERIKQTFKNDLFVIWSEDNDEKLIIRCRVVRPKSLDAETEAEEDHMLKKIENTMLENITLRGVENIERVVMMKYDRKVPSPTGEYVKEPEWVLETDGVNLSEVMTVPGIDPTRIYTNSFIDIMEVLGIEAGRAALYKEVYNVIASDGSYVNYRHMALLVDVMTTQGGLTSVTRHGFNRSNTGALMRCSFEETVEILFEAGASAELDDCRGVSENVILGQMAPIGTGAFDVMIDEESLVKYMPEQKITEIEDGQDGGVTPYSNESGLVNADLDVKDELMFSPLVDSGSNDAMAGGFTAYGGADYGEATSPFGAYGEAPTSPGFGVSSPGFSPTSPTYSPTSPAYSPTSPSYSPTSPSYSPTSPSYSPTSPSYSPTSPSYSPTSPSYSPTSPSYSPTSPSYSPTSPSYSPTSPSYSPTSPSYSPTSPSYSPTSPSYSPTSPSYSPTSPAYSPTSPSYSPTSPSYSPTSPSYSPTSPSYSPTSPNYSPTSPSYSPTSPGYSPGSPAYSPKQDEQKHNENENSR

The target of one test is TAP-Sen1 (S. cerevisiae) (UniProt Q00416). As to the kind of experiment: co-IP; TAP-Sen1 (wt or ΔNter) as the bait, expressed from pGAL in galactose; IgG Sepharose; extracts treated with RNaseA before immunoprecipitation; blots with antibodies against CTD forms.
Test [1] addresses T1, TAP-Sen1ΔNter (S. cerevisiae) (UniProt Q00416).
T1 sequence: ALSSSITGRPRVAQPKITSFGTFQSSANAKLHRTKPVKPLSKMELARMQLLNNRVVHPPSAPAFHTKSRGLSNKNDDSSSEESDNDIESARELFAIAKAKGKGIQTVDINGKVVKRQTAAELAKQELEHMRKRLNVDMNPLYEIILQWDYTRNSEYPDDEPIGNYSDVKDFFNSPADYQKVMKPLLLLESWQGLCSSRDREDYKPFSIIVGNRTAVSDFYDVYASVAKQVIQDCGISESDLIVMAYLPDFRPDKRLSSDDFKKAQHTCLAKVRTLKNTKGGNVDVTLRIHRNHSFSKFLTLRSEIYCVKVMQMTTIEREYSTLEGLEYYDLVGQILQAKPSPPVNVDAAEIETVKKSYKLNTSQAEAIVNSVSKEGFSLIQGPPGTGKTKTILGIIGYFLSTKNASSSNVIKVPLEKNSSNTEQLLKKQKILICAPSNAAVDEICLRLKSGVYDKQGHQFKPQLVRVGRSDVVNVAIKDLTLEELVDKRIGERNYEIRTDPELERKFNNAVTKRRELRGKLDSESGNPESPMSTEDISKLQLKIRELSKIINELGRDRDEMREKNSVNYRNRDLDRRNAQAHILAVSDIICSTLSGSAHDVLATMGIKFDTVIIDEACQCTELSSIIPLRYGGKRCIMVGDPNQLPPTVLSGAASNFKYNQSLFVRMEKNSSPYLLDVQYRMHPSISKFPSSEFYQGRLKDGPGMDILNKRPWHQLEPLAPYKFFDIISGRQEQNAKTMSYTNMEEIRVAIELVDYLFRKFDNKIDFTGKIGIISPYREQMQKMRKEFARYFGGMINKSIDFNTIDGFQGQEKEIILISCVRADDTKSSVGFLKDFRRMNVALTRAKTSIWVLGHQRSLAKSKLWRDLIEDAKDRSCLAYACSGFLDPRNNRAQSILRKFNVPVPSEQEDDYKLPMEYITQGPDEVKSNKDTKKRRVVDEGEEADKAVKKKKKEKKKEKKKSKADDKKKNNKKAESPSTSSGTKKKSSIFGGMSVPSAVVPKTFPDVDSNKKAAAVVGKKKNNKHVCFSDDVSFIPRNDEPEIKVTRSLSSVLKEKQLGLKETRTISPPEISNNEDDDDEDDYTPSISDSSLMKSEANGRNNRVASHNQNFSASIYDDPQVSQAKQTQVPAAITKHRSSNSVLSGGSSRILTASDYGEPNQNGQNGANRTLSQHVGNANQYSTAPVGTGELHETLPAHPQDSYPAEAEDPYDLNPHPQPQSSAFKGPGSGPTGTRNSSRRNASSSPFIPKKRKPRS
The test is described as above.

For the next test, the target named is T2, Nrd1-TAP (S. cerevisiae) (UniProt P53617).
T2 sequence: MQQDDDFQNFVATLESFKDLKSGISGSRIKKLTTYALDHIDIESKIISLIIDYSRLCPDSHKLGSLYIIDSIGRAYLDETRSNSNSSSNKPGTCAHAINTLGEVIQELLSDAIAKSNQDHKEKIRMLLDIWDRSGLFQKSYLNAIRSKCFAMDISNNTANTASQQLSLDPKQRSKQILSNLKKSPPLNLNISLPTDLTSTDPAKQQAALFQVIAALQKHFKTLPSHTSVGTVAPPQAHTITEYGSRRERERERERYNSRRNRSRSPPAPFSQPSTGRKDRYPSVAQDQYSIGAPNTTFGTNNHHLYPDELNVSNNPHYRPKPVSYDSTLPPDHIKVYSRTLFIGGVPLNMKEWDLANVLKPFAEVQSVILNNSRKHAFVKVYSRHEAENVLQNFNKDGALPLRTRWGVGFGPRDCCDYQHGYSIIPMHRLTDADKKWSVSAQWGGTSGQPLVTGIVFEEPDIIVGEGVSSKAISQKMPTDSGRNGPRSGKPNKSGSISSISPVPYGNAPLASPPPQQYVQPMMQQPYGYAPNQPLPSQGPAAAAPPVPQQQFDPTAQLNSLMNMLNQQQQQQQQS
As to the kind of experiment: co-IP; TAP-tagged Nrd1 (wt or ∆CID) as bait on IgG Fast Flow Sepharose from yeast extracts; lysis buffer 10 mM sodium phosphate pH 7, 200 mM sodium acetate, 0.25% NP-40, 2 mM EDTA, 1 mM EGTA, 5% glycerol; Sen1 detected by blot (Fig 1A, 1C, EV3E).

The target of test [2] is Sen1ΔNIM-HA (S. cerevisiae) (UniProt Q00416). As to the kind of experiment: co-IP; HA-tagged Sen1 (wt or ΔNIM) as the bait; anti-HA 12CA5 and Protein A beads; extracts treated with RNaseA prior to immunoprecipitation.
The target of test [3] is T3, His6-GST-tagged Sen1 Cter (S. cerevisiae) (UniProt Q00416).
T3 sequence: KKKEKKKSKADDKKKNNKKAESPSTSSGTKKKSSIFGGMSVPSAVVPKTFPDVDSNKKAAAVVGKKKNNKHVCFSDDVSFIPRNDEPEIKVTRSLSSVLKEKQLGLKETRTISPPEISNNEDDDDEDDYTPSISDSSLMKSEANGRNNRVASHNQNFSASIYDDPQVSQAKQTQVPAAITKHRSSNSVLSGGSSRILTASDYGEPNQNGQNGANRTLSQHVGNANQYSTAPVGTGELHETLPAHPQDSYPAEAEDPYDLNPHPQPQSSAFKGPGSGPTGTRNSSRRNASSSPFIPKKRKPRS
Kind of test: pull-down; E. coli extract with His6-GST-Sen1 Cter (wt or ∆NIM) incubated with glutathione sepharose, then mixed with yeast extract expressing Sen1 TAP-Nter; extracts treated with 50 μg/ml RNase A; washed with lysis buffer (10 mM sodium phosphate pH 7, 200 mM sodium acetate, 0.25% NP-40); eluted with glutathione.

Test [4] addresses HA-tagged Sen1 (S. cerevisiae) (UniProt Q00416). Kind of test: co-IP; HA-tagged Sen1 (wt or ∆NIM) as bait, anti-HA 12CA5 and Protein A Dynabeads, 4°C; extracts treated with RNaseA before immunoprecipitation; Nrd1 and Nab3 detected by blot (Fig 1D).

No constants are given. Whether binding was seen depends on the method and setting. In cells and extracts the contact can be indirect. Some results given as binding are weak or reduced against the parent protein; the word gives no strength. For some of these results: Tags and fused reporters may be left off the sequences shown.

For the molecule “RNAPII largest subunit Rpb1 with S7-phosphorylated CTD (from UniProt P04050 1-1733)”, the binding entry (in the test with TAP-Sen1 (S. cerevisiae); in test [1]) was “binds” in each case. In the case of “RNAPII largest subunit Rpb1 with T4-phosphorylated CTD (from UniProt P04050 1-1733)”, the binding result (in the test with TAP-Sen1 (S. cerevisiae); in test [1]) was “binds” each time.

For the molecule Sen1 (from UniProt Q00416 1-2231), the binding entry with Nrd1-TAP (S. cerevisiae) is “binds”.

On to “RNAPII largest subunit Rpb1 with unphosphorylated CTD (from UniProt P04050 1-1733)”, for which the binding entry (in the test with TAP-Sen1 (S. cerevisiae); in test [1]) was “binds” throughout.

B1: Nab3 (protein, UniProt P38996 1-802)
chain: MSDENHNSDVQDIPSPELSVDSNSNENELMNNSSADDGIEFDAPEEEREAEREEENEEQHELEDVNDEEEEDKEEKGEENGEVINTEEEEEEEHQQKGGNDDDDDDNEEEEEEEEDDDDDDDDDDDDEEEEEEEEEEGNDNSSVGSDSAAEDGEDEEDKKDKTKDKEVELRRETLEKEQKDVDEAIKKITREENDNTHFPTNMENVNYDLLQKQVKYIMDSNMLNLPQFQHLPQEEKMSAILAMLNSNSDTALSVPPHDSTISTTASASATSGARSNDQRKPPLSDAQRRMRFPRADLSKPITEEEHDRYAAYLHGENKITEMHNIPPKSRLFIGNLPLKNVSKEDLFRIFSPYGHIMQINIKNAFGFIQFDNPQSVRDAIECESQEMNFGKKLILEVSSSNARPQFDHGDHGTNSSSTFISSAKRPFQTESGDMYNDDNGAGYKKSRRHTVSCNIFVKRTADRTYAIEVFNRFRDGTGLETDMIFLKPRMELGKLINDAAYNGVWGVVLVNKTHNVDVQTFYKGSQGETKFDEYISISADDAVAIFNNIKNNRNNSRPTDYRAMSHQQNIYGAPPLPVPNGPAVGPPPQTNYYQGYSMPPPQQQQQQPYGNYGMPPPSHDQGYGSQPPIPMNQSYGRYQTSIPPPPPQQQIPQGYGRYQAGPPPQPPSQTPMDQQQLLSAIQNLPPNVVSNLLSMAQQQQQQPHAQQQLVGLIQSMQGQAPQQQQQQLGGYSSMNSSSPPPMSTNYNGQNISAKPSAPPMSHQPPPPQQQQQQQQQQQQQQQQPAGNNVQSLLDSLAKLQK
Regarding B1, the binding entry in test [2] is on record as “no binding”.

B2: Sen1 TAP-Nter (domain or fragment, UniProt Q00416 1-975)
chain: MNSNNPDNNNSNNINNNNKDKDIAPNSDVQLATVYTKAKSYIPQIEQVYQGTNPNIQEAKLLGELLQVLAEVPKGTHLFCDPILEPISIFSLTIFSFNEEATATWLKNHFNPILSVCDKCILNFARGKCKMLQHFAIQRHVPHEHVAKFNDIVCQWRVEAVFPILRNISVNDNTGINITNEIETAMYECLCNPHMLRLNKQLKATFEAIFKFFYDTKHRLLDVTNPLSIKTFISGVIFCWCEGSKEENEWSRAFLKDLYSRNFHINLSNLTPDIIEEVYIHILFLQNPANWTEIVVSQFWSRLLPVFNLFDKDVFIEYFQVPKNVESLKKTFKFPLEPIFKMWYNHLSKSYHDKPLDFLLRGLTMFLNKFGSEFWSKIEPFTFHSILDIIFNRDSFPIKLIKIQDNPIVEHQTEVYFQLTGSVTDLLSWTLPFYHALSPSKRIQMVRKVSMAFLRIIANYPSLKSIPKACLMNSATALLRAVLTIKENERAMLYKNDEFETVLLTKTDSRALLNNPLIQDIIIRSASNPNDFYPGLGAASASVATSTMMVLAECIDFDILLLCHRTFKLYSGKPISEIPISTNVLENVTNKIDLRSFHDGPLLAKQLLVSLKNINGLLIVPSNTAVAEAHNALNQKFLLLSTRLMEKFADILPGQLSKILADEDASQGFWSCIFSSDKHLYQAATNILYNTFDVEGRLEGILAILNSNLTVNLKNINVMLQRLINCEFYEPCPRAVRVLMDVVSAFVDPISGVFANFQTLKSQNTEKEFLKFWESCWLFLDTIYKFTLKWASKYDYSELENFTKDTLDLSRSLVDSFREFSDILHDQTKNLLLNVLETFKNMLYWLRLSDEVLLESCVRLIISTSDLAHEKHVKVDDSLVEMMAKYASKAKRFSNKLTEQQASEILQKAKIFNKALTEEVATEAENYRKEKELSRLGKVIDLTDSVPASPSLSPSLSSTIASSSAESRADYLQRK
B2: the binding result in test [3] is on record as “binds”.

B3: Nrd1 (protein, UniProt P53617 1-575)
chain: T2 sequence
As for B3, in test [4], the binding entry is “binds”.
